Results are given in words; binding and its absence hold for the method and conditions named. Binding seen in cells or lysates may run through a third protein. Some results given as binding are weak or reduced against the parent protein; the word gives no strength.
Key:
[1] = biological target: T1, TRAF3 Interacting Protein 2 (TRAF3IP2) (mouse (endogenous in MIN6 cells and mouse islets)) (UniProt Q8N7N6); assay: co-IP; Co-IP followed by western blot, islets from len-βFaar mice (lentiviral overexpression of the lncRNA βFaar in vivo, n = 5; Fig. 7p)
T1 sequence: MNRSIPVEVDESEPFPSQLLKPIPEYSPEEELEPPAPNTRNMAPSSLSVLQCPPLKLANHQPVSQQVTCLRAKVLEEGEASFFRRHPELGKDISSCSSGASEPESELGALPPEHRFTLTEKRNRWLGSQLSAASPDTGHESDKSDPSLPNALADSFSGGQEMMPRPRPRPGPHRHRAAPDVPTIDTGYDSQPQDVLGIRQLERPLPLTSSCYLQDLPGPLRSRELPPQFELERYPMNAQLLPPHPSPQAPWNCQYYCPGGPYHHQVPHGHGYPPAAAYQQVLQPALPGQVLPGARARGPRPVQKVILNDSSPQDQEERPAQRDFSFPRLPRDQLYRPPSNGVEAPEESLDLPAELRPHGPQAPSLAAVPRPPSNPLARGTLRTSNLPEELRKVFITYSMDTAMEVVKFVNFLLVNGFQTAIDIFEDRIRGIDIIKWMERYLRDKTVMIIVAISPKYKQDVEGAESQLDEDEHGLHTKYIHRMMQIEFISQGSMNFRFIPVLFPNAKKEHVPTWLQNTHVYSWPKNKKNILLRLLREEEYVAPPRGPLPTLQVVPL

Sequences of proteins named here, by UniProt entry; tags and fusion partners are left off.
UniProt Q9CUN6: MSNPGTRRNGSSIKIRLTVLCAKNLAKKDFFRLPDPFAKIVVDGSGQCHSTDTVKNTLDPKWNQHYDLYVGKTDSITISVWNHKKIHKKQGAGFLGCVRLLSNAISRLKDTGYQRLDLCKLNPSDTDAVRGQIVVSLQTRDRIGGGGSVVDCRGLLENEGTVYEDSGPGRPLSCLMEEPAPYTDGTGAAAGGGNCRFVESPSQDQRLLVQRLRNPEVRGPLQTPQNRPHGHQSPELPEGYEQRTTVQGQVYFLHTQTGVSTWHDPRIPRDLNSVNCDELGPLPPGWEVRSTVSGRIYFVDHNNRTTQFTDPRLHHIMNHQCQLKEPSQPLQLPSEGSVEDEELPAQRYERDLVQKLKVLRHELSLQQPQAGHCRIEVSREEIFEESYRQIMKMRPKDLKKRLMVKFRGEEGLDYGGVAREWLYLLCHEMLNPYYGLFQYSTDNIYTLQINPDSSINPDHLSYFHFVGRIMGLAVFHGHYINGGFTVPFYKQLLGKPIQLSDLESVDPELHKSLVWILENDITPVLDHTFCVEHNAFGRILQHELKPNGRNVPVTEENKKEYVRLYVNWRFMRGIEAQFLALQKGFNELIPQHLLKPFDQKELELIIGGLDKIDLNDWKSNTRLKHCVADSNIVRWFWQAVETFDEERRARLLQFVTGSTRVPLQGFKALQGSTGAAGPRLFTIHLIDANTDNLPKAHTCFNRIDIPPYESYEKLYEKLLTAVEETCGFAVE

[2] = biological target: T1, TRAF3 Interacting Protein 2 (TRAF3IP2) (mouse (endogenous in MIN6 cells and mouse islets)); assay: co-IP; endogenous Co-IP followed by western blot (Fig. S7m, n); also cell lysates from MIN6 cells with overexpression of the lncRNA βFaar (Fig. 7o)

binding [1]: binds
binding [2]: binds
Substance: SMAD specific E3 ubiquitin protein ligase 1 (SMURF1) (from UniProt Q9CUN6 1-731) (enzyme)
